Earlier results in patent US20130216579A1, “METHODS AND COMPOSTITIONS FOR GENE EDITING OF A PATHOGEN” (priority 2012, published 2013).

System: P. falciparum
Details: CQ resistant parasites; read-out: IC50 values that typify in vitro CQ resistance; cited from earlier work

Compound: CCN(CC)CCCC(C)Nc1ccnc2cc(Cl)ccc12 (stereo not shown) [CQ, chloroquine]
- IC50: 80 to 100 nM
